Results are given in words; binding and its absence hold for the method and conditions named. Binding seen in cells or lysates may run through a third protein. Binding calls can cover weak binding; strength is not graded here.
Target: β-amyloid precursor protein carrying Swedish mutation (UniProt P05067)
Assay: co-IP; lysate of APPsw-transfected HeLa cells incubated without or with 1 or 5 μM E144 for 1 h at 37 °C; 300 μg total protein incubated with 2 μL APP antibody (6E10) for 2 h, washed 3 times with PBS; Western blot with ADAM9, ADAM10, ADAM17 and APP antibodies

By UniProt entry, the sequences of proteins in these tests, tags left out. Residues count along the entry.
UniProt Q13443, residues 29-819: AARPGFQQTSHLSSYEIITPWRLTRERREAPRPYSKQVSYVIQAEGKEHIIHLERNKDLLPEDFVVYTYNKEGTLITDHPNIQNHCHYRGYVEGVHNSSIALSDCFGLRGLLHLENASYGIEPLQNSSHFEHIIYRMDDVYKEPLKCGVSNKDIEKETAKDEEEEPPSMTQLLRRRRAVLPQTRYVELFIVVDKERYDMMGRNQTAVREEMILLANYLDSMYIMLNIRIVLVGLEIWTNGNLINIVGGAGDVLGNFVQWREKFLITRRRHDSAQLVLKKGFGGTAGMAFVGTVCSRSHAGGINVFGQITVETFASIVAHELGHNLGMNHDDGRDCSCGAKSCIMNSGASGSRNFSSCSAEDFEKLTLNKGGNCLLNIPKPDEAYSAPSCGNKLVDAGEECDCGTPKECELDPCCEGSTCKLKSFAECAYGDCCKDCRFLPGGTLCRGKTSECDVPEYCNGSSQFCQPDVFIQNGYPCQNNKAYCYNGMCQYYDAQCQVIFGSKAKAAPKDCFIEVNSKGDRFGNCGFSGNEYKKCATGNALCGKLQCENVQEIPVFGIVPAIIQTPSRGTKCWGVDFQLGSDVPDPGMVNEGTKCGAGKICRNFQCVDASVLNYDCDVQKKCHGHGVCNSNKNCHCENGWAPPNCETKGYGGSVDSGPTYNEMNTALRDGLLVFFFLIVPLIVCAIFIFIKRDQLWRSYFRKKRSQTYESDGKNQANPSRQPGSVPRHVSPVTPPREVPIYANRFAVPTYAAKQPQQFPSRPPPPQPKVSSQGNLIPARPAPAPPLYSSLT

binding: binds
Sequence: A Disintegrin and Metalloproteinase 9 (from UniProt Q13443 29-819) (enzyme)

— article PMC7037359
